# Laboratory results: the supplement of paper PMC10849652
# Chains of the proteins cited; added tags and fusions are not shown. Lines headed by an entry give the natural chain unless they say otherwise; changes in a name come on top.
# UniProt Q8TC07: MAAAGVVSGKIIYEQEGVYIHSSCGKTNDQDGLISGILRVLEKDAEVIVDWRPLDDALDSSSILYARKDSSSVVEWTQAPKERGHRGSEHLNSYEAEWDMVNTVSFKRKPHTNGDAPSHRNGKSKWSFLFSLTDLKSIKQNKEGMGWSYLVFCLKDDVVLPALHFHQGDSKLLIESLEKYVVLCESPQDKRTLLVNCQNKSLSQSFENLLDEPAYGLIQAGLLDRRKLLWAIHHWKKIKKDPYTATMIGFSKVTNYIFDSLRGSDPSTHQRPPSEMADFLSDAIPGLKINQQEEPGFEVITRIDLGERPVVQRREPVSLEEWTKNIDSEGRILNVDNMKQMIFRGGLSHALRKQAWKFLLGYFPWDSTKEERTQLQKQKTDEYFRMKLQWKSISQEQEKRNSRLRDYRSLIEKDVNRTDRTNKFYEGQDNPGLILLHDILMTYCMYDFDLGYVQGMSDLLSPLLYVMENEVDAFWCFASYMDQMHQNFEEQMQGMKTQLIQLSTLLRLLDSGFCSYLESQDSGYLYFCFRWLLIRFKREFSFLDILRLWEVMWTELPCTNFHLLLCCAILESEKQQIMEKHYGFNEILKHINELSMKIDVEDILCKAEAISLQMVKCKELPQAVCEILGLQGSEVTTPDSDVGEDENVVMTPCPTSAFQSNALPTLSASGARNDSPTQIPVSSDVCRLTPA
# UniProt Q9Y5J6: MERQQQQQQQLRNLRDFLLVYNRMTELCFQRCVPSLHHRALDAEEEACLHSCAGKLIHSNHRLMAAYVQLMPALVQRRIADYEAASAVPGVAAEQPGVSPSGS
# UniProt Q12800: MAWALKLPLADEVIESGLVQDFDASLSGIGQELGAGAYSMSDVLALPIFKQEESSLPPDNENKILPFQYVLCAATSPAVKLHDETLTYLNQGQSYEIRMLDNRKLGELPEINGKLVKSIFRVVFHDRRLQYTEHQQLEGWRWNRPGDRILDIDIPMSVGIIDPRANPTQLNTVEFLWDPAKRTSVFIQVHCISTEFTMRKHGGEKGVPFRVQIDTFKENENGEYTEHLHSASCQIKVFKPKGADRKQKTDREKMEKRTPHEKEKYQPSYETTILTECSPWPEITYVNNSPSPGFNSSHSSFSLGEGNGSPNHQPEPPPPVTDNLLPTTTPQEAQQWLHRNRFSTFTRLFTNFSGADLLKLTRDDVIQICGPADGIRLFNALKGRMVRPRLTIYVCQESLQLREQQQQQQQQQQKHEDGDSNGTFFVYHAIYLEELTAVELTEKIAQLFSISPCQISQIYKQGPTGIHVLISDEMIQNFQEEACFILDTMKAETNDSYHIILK
# UniProt Q9UDY2: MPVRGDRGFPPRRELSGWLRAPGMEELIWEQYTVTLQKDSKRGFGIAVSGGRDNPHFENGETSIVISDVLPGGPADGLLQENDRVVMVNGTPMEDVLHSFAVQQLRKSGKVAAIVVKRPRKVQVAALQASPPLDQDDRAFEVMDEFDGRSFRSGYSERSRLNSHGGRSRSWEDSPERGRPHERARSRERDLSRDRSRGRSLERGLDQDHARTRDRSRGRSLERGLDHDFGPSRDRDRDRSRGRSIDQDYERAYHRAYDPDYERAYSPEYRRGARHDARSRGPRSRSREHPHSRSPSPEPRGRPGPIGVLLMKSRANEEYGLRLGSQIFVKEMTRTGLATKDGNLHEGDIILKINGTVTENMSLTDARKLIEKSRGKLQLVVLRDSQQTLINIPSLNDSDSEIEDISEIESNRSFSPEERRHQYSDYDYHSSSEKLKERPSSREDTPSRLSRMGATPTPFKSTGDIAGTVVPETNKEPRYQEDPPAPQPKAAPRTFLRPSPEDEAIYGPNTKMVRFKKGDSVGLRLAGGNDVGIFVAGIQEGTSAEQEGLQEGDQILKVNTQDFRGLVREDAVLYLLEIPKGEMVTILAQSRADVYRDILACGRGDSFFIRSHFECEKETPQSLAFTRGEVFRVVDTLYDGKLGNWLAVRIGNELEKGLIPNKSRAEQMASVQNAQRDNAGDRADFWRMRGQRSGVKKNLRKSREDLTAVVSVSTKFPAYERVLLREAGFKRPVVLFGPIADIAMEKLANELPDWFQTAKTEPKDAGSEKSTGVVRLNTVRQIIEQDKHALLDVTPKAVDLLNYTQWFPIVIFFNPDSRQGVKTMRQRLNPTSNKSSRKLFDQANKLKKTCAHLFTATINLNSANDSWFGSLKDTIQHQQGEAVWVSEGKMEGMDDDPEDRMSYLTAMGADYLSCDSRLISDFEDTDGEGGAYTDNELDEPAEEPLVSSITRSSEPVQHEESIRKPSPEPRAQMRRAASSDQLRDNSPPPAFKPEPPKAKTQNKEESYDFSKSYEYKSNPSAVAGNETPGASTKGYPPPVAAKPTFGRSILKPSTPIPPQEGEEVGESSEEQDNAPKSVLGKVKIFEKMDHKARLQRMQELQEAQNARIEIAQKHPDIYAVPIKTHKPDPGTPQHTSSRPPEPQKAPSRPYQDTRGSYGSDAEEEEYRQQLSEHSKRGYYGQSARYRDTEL
# UniProt Q8WUH2: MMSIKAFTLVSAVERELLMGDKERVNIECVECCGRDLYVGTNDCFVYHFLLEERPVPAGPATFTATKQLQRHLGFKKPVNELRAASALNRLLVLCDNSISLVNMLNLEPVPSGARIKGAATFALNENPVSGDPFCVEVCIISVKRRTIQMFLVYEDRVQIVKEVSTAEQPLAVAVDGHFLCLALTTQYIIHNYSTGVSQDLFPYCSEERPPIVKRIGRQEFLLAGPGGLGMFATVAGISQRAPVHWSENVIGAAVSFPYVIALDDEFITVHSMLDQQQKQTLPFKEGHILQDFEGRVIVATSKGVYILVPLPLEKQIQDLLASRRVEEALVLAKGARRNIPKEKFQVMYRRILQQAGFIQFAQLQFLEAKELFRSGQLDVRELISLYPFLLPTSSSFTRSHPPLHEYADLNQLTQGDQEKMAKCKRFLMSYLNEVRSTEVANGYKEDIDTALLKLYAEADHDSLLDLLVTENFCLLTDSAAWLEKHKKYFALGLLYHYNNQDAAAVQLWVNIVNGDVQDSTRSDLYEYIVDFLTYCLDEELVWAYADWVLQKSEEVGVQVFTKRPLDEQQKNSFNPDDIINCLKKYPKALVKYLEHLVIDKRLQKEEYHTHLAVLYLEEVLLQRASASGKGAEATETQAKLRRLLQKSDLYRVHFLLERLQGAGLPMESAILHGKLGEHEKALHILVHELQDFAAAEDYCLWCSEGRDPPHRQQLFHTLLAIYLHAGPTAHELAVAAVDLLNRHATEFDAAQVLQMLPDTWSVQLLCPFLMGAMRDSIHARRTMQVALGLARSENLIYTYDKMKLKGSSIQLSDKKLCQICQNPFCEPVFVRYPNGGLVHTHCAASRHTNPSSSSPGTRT
# UniProt O95455: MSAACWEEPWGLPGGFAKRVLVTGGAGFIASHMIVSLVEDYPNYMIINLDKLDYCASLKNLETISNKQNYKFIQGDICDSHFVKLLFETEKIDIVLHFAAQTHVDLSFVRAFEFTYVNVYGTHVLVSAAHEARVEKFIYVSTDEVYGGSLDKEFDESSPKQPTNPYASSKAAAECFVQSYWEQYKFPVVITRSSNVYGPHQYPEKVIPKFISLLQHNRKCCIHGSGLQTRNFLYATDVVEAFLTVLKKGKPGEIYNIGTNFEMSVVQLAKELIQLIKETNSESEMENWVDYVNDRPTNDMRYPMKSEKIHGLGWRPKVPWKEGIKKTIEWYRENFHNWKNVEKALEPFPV
# UniProt Q9Y4R8, whole entry, looked up: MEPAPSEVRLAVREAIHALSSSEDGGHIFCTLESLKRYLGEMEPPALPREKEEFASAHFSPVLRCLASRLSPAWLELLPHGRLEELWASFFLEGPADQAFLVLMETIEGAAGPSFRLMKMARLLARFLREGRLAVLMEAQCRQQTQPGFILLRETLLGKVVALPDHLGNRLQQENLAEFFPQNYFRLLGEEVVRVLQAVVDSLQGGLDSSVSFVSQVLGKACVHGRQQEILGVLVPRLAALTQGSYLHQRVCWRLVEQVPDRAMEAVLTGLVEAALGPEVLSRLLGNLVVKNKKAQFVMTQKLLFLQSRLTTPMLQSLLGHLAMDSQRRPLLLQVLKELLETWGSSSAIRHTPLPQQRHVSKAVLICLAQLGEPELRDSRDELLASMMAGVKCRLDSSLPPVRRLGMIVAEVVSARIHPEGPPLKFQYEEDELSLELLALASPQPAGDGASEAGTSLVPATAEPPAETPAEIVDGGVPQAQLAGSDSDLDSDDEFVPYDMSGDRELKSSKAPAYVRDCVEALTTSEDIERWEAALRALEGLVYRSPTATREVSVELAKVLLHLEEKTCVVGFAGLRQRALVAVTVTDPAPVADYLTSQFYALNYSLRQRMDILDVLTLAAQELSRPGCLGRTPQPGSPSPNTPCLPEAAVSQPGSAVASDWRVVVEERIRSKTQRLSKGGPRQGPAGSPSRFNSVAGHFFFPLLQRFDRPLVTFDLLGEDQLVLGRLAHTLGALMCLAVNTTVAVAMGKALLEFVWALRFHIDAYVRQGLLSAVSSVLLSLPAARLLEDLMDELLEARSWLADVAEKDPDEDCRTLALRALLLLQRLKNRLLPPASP
# UniProt Q9Y2W1: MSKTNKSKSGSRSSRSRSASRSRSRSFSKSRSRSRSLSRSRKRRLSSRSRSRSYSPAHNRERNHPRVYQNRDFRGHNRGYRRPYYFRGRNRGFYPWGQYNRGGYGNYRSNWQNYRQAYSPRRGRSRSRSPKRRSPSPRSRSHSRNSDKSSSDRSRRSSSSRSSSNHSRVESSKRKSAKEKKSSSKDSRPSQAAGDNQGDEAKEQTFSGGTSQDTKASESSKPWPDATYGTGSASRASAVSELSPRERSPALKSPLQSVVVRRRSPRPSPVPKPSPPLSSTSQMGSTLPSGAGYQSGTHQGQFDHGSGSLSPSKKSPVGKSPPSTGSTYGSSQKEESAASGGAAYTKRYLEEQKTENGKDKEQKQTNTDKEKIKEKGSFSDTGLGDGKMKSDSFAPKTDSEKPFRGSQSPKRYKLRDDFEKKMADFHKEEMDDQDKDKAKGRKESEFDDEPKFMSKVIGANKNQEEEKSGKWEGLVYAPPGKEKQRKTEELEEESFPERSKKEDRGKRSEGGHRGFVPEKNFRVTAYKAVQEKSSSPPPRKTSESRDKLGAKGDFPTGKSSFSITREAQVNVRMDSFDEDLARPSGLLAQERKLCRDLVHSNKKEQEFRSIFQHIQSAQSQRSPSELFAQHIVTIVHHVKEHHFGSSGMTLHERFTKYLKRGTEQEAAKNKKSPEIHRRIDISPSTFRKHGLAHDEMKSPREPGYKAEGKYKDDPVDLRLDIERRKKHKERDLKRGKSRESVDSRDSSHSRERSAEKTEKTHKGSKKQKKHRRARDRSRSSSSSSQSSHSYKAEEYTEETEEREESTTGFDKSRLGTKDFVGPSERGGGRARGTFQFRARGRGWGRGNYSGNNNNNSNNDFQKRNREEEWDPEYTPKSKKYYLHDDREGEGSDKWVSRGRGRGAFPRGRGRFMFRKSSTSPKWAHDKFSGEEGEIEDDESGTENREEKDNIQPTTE
# UniProt Q9Y6I9: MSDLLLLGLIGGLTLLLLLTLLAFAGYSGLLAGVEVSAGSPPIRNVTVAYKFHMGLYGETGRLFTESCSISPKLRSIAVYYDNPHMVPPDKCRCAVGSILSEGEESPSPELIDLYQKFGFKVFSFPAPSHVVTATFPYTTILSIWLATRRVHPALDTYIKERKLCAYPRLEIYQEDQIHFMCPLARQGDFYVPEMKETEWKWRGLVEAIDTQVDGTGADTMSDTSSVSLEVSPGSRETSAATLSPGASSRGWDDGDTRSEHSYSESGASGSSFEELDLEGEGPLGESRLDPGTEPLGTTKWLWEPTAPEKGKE
# UniProt Q9UHD2: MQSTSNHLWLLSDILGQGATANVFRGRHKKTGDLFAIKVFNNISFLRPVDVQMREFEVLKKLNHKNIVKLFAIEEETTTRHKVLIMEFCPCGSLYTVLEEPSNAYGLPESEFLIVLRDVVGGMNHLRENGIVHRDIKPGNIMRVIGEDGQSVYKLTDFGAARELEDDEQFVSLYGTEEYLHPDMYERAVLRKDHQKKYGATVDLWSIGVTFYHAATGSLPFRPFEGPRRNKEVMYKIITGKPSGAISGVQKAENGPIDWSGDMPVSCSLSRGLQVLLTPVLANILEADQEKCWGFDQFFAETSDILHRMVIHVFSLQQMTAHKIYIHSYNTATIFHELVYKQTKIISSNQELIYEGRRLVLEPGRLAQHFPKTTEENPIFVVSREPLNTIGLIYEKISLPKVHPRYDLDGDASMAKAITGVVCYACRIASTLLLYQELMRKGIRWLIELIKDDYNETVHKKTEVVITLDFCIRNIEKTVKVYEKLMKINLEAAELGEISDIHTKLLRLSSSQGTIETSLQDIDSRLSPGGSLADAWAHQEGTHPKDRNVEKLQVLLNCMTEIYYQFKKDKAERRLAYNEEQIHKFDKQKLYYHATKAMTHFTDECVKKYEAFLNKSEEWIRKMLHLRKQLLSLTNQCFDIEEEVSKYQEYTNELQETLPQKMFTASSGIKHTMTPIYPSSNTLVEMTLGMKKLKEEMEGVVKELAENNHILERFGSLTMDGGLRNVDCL
# This is one part of the list. Residues, ends and D or L forms follow the SMILES beside them. *: point of attachment. Cbz = O=C(OCc1ccccc1)*
# Experiments:
# Assay in all cases: log2 fold change, soluble protein after heating vs DMSO (PISA); higher = thermal stabilisation; K562 cells, 10 uM, 30 min; active = over 0.2 and 3.5 SD of the protein, either way, in both replicates (recomputed)
# erlotinib = compound: C#Cc1cccc(Nc2ncnc3cc(OCCOC)c(OCCOC)cc23)c1 [erlotinib]
# Method in brief: (§1)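 Values are thermal stability changes relative to control samples and are taken from duplicates. They are stated as log2 fold changes. Before quantification by TMTpro 16plex LC-MS/MS with equalised channel sums, K562 cells at 2×10^6 cells/mL were treated with 10 μM compound for 30 min, heated in aliquots for 3 min across 48°C-58°C, pooled, extracted in PBS with 0.5% NP-40 at 4°C, and centrifuged at 21,000xg for 90 min to give the soluble supernatant.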
# [1] = compound: C/C(=N\NC(=O)C1=CC(=CC=C1)S(=O)(=O)N2CCOCC2)/C3=C(C=CC(=C3)Cl)O
# Method in brief: as §1
# [2] = compound: C1=CC(=C(C=C1Cl)C2=NC3=NC=CN=C3C(=N2)NC4=CC=NC=C4)F
# Method in brief: as §1
# [3] = compound: C1=CC(=CC=C1C2=NC3=C(N2)C=C(C=C3)C(=O)N)OC4=CC=C(C=C4)Cl
# Method in brief: as §1
# [4] = compound: C1=CC2=C(C=CC(=C2)/C=C\3/C(=O)NC(=NCC4=CC=CS4)S3)N=C1
# Method in brief: as §1
# [5] = compound: C1=CC2=NC=CN=C2C=C1/C=C/3\C(=O)NC(=O)S3
# Method in brief: as §1
# [6] = compound: C1=CC=C(C=C1)C2=NC(=C(N2)C3=CC=NC=C3)C4=CC(=C(C=C4)Cl)O
# Method in brief: as §1
# [7] = compound: C1=CC=C2C(=C1)C3=NNC4=CC=CC(=C43)C2=O
# Method in brief: as §1
# [8] = compound: C1CCN(C1)C(=O)NC2=CC=CC(=C2)NC3=NC=C(C(=N3)NCCC4=CN=CN4)Br
# Method in brief: as §1
# [9] = compound: C1CN(CCC1(CC2=CC=C(C=C2)Cl)N)C3=NC=NC4=C3C=CN4
# Method in brief: as §1
# IRAK-1-4 Inhibitor I = compound: C1COCCN1CCN2C3=CC=CC=C3N=C2NC(=O)C4=CC(=CC=C4)[N+](=O)[O-] [IRAK-1-4 Inhibitor I]
# Method in brief: as §1
# ibrutinib = compound: C=CC(=O)N1CCC[C@@H](n2nc(-c3ccc(Oc4ccccc4)cc3)c3c(N)ncnc32)C1 [ibrutinib]
# Method in brief: as §1
# [10] = compound: CC(=O)c1cnc2ccc(-c3cc(Cl)c(O)c(Cl)c3)nc2c1N[C@H]1CC[C@H](CN(C)C)CC1
# Method in brief: as §1
# ralimetinib = compound: CC(C)(C)Cn1c(N)nc2ccc(-c3[nH]c(C(C)(C)C)nc3-c3ccc(F)cc3)nc21 [ralimetinib]
# Method in brief: as §1
# [11] = compound: CC(C)(O)CC(=O)NCCn1ccc2ncnc(Nc3ccc(Oc4cccc(C(F)(F)F)c4)c(Cl)c3)c21
# Method in brief: as §1
# [12] = compound: CC(C)C1=C2N=C(C=C(N2N=C1)NCC3=CC=CC=C3)NCCCCCCN
# Method in brief: as §1
# [13] = compound: CC(C)C[C@@H](C=O)NC(=O)[C@H](CC(C)C)NC(=O)[C@H](CC(C)C)NC(=O)OCc1ccccc1
# Method in brief: as §1
# pinometostat = compound: CC(C)N(C[C@H]1O[C@@H](n2cnc3c(N)ncnc32)[C@H](O)[C@@H]1O)[C@H]1C[C@@H](CCc2nc3cc(C(C)(C)C)ccc3[nH]2)C1 [pinometostat]
# Method in brief: as §1
# [14] = compound: CC1=C(C2=C(C=C1)C(=O)C3=CC=CC=C3N2CCCN)C
# Method in brief: as §1
# [15] = compound: CC1=C(C(CC(=O)N1)C2=CC=C(C=C2)C(F)(F)F)C(=O)NC3=C(C=C4C(=C3)C=NN4)F
# Method in brief: as §1
Target,log2 fold change (erlotinib),log2 fold change [1],log2 fold change [2],log2 fold change [3],log2 fold change [4],log2 fold change [5],log2 fold change [6],log2 fold change [7],log2 fold change [8],log2 fold change [9],log2 fold change (IRAK-1-4 Inhibitor I),log2 fold change (ibrutinib),log2 fold change [10],log2 fold change (ralimetinib),log2 fold change [11],log2 fold change [12],log2 fold change [13],log2 fold change (pinometostat),log2 fold change [14],log2 fold change [15]
TBC1D15 isoform 3 (UniProt Q8TC07),inactive: -0.007,inactive: 0.075,inactive: 0.024,inactive: -0.029,inactive: 0.059,inactive: 0.067,inactive: 0.029,inactive: -0.035,inactive: 0.016,inactive: -0.048,inactive: 0.235,inactive: -0.021,inactive: 0.009,inactive: 0.041,inactive: -0.082,active: -0.326,inactive: 0.012,inactive: 0.056,inactive: -0.01,–
TIMM10B (UniProt Q9Y5J6),inactive: 0.299,inactive: 0.135,inactive: 0.191,inactive: -0.189,inactive: 0.216,inactive: 0.048,inactive: 0.042,inactive: 0.543,inactive: -0.143,inactive: -0.051,–,inactive: -0.008,inactive: -0.231,inactive: 0,inactive: -0.07,inactive: -0.197,inactive: -0.126,–,inactive: 0.089,–
THYN1 (UniProt Q9P016),inactive: -0.061,inactive: 0.007,inactive: -0.041,inactive: 0.125,inactive: 0,inactive: 0.006,inactive: -0.032,inactive: 0.145,inactive: -0.002,inactive: -0.037,inactive: -0.032,inactive: -0.028,inactive: 0.039,inactive: -0.01,inactive: 0.036,inactive: -0.046,inactive: 0.025,inactive: 0.004,active: 0.331,–
TFCP2 (UniProt Q12800),inactive: 0.078,–,inactive: -0.163,inactive: -0.036,–,inactive: 0.003,inactive: 0.048,–,–,–,inactive: -0.033,inactive: 0.028,–,inactive: 0.149,inactive: 0.084,inactive: -0.408,inactive: 0.081,inactive: 0.242,–,inactive: -0.02
TJP2 isoform 7 (UniProt Q9UDY2),inactive: 0.116,inactive: 0.06,inactive: -0.042,inactive: 0.006,inactive: 0.029,inactive: -0.201,inactive: 0.008,inactive: -0.006,inactive: -0.08,inactive: 0.001,inactive: 0.004,inactive: -0.004,active: -0.437,inactive: 0.032,inactive: -0.061,inactive: -0.107,inactive: 0.068,inactive: 0.003,inactive: 0.05,–
TGFBRAP1 (UniProt Q8WUH2),inactive: 0.064,inactive: 0.217,inactive: -0.046,inactive: -0.119,inactive: 0.084,inactive: 0.062,inactive: 0.194,inactive: 0.121,inactive: -0.06,inactive: -0.053,inactive: -0.088,inactive: -0.067,inactive: -0.119,inactive: 0.33,inactive: -0.108,inactive: -0.424,inactive: -0.037,inactive: 0.046,inactive: -0.017,–
TBC1D23 (UniProt Q9NUY8),inactive: 0.043,inactive: 0.012,inactive: 0.047,inactive: 0.067,inactive: 0.071,inactive: 0.021,inactive: -0.032,inactive: -0.054,inactive: -0.036,inactive: -0.025,inactive: 0.062,inactive: -0.02,inactive: -0.067,inactive: 0.002,inactive: -0.098,active: -0.45,inactive: 0.071,inactive: -0.046,inactive: 0.01,–
TDRD7 (UniProt Q8NHU6),inactive: 0.074,inactive: 0.101,inactive: -0.036,inactive: 0.013,inactive: -0.045,–,inactive: 0.095,inactive: 0,–,–,inactive: 0.087,–,inactive: -0.364,inactive: -0.004,inactive: 0.488,inactive: 0.19,inactive: -0.079,inactive: -0.041,–,–
TGDS (UniProt O95455),inactive: 0.012,inactive: 0.121,–,inactive: -0.025,inactive: 0.044,–,–,inactive: 0.08,inactive: -0.027,inactive: -0.045,–,–,inactive: 0.033,–,–,inactive: 0.056,–,–,inactive: 0.047,inactive: 0.059
TELO2 (UniProt Q9Y4R8),inactive: 0.043,inactive: 0.102,inactive: -0.185,inactive: -0.031,inactive: -0.039,inactive: 0.019,inactive: -0.037,inactive: 0.053,inactive: 0.046,inactive: -0.076,inactive: -0.126,inactive: -0.044,inactive: 0.008,inactive: 0.103,inactive: 0,inactive: -0.375,inactive: 0.049,inactive: 0.204,inactive: 0.125,–
TCERG1 (UniProt O14776),inactive: 0.072,inactive: 0.154,inactive: 0.152,inactive: -0.017,inactive: 0.067,inactive: -0.022,inactive: 0.015,inactive: 0.027,inactive: -0.104,inactive: -0.029,inactive: -0.062,inactive: -0.073,inactive: -0.065,inactive: -0.035,inactive: -0.172,inactive: -0.086,inactive: -0.041,inactive: -0.039,inactive: 0.062,–
THRAP3 (UniProt Q9Y2W1),inactive: 0.081,inactive: 0.023,inactive: -0.071,inactive: 0.067,inactive: -0.094,inactive: -0.002,inactive: -0.097,inactive: -0.171,inactive: 0.038,inactive: -0.09,inactive: -0.116,inactive: 0.01,active: -0.581,inactive: -0.026,inactive: -0.032,inactive: -0.12,inactive: 0.075,inactive: 0.057,inactive: -0.018,–
THADA (UniProt Q6YHU6),inactive: 0.039,inactive: 0.068,inactive: 0.03,inactive: 0.035,inactive: 0.071,inactive: 0.007,inactive: 0.029,inactive: -0.002,inactive: -0.011,inactive: -0.006,inactive: 0.007,inactive: -0.026,inactive: -0.062,inactive: 0.053,inactive: -0.166,inactive: -0.225,inactive: -0.071,inactive: 0.016,inactive: -0.047,–
TECR (UniProt Q9NZ01),inactive: -0.02,inactive: 0.042,inactive: 0.036,inactive: -0.059,inactive: 0.018,inactive: 0.024,inactive: 0.067,inactive: -0.059,inactive: 0.072,inactive: 0.045,inactive: 0.04,inactive: -0.059,inactive: 0,inactive: -0.061,inactive: -0.107,active: -0.458,inactive: 0.009,inactive: 0.024,inactive: 0.036,–
TEX264 (UniProt Q9Y6I9),inactive: 0.099,inactive: 0.024,inactive: 0.034,active: 0.769,inactive: 0.325,inactive: 0,inactive: 0.203,inactive: 0.349,inactive: 0.033,inactive: 0,inactive: -0.011,inactive: -0.049,inactive: -0.022,inactive: 0,inactive: 0.19,inactive: -0.148,inactive: -0.035,inactive: -0.005,inactive: 0.091,–
TBRG4 (UniProt Q969Z0),inactive: 0.072,inactive: 0.18,inactive: 0.046,inactive: -0.154,inactive: 0.063,inactive: -0.056,inactive: 0.056,inactive: -0.201,inactive: -0.07,inactive: -0.036,inactive: -0.031,inactive: 0,inactive: -0.188,inactive: -0.134,active: -0.578,inactive: -0.624,inactive: -0.038,inactive: -0.014,inactive: -0.171,–
TBK1 (UniProt Q9UHD2),inactive: -0.042,inactive: 0.009,inactive: 0.003,inactive: -0.048,inactive: 0.044,inactive: 0.026,inactive: -0.082,inactive: 0.009,inactive: 0.029,inactive: -0.105,inactive: -0.046,inactive: -0.019,inactive: -0.162,inactive: 0.024,inactive: -0.067,inactive: -0.208,inactive: 0.046,inactive: 0.087,inactive: -0.091,–

# Some of the entries so far, with tabs.
Target	log2 fold change (erlotinib)	log2 fold change [1]	log2 fold change [2]	log2 fold change [3]	log2 fold change [4]	log2 fold change [5]	log2 fold change [6]	log2 fold change [7]	log2 fold change [8]	log2 fold change [9]	log2 fold change (IRAK-1-4 Inhibitor I)	log2 fold change (ibrutinib)	log2 fold change [10]	log2 fold change (ralimetinib)	log2 fold change [11]	log2 fold change [12]	log2 fold change [13]	log2 fold change (pinometostat)	log2 fold change [14]	log2 fold change [15]
TBC1D15 isoform 3 (UniProt Q8TC07)	inactive: -0.007	inactive: 0.075	inactive: 0.024	inactive: -0.029	inactive: 0.059	inactive: 0.067	inactive: 0.029	inactive: -0.035	inactive: 0.016	inactive: -0.048	inactive: 0.235	inactive: -0.021	inactive: 0.009	inactive: 0.041	inactive: -0.082	active: -0.326	inactive: 0.012	inactive: 0.056	inactive: -0.01	–
TBRG4 (UniProt Q969Z0)	inactive: 0.072	inactive: 0.18	inactive: 0.046	inactive: -0.154	inactive: 0.063	inactive: -0.056	inactive: 0.056	inactive: -0.201	inactive: -0.07	inactive: -0.036	inactive: -0.031	inactive: 0	inactive: -0.188	inactive: -0.134	active: -0.578	inactive: -0.624	inactive: -0.038	inactive: -0.014	inactive: -0.171	–
